Experimental data: the supplement of paper PMC6411743
± gives the standard deviation of the averaged measurements. This is one part of the list.

Amino acid sequences for entries named in this document (tags omitted). A change or cut given only in a name is not applied to a line headed by its entry.
UniProt Q13595: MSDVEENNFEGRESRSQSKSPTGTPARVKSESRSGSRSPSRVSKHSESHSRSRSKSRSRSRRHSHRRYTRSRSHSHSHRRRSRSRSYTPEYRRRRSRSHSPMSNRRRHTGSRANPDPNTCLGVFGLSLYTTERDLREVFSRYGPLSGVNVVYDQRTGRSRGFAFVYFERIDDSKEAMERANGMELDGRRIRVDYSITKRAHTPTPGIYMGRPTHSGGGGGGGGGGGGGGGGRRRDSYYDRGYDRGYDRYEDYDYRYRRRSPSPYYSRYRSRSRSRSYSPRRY
UniProt Q12904: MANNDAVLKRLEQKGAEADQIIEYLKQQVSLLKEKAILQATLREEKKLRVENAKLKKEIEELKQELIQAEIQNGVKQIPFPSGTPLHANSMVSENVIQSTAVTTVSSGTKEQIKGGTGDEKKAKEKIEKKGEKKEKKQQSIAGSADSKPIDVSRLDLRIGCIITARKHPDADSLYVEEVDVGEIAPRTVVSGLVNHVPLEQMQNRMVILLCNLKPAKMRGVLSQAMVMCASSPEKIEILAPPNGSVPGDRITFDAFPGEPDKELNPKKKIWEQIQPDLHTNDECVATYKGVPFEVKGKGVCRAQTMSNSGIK
UniProt Q08357: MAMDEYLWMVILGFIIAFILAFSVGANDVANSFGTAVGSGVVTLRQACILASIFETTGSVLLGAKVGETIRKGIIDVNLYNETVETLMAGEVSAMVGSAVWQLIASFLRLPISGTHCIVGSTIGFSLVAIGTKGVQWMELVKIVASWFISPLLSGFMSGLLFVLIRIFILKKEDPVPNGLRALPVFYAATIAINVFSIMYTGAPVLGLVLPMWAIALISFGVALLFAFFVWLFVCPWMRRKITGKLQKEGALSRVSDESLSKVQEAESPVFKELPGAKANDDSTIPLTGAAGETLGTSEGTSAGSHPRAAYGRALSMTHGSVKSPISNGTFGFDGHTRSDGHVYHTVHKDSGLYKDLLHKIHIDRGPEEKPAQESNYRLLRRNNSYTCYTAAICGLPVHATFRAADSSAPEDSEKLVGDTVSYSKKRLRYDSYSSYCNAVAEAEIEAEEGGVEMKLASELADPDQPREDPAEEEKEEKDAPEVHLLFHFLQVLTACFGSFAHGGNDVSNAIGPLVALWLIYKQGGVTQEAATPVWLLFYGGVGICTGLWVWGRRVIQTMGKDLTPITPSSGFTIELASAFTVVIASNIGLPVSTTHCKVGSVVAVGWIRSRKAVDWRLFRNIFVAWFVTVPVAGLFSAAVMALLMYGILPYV
UniProt Q04760: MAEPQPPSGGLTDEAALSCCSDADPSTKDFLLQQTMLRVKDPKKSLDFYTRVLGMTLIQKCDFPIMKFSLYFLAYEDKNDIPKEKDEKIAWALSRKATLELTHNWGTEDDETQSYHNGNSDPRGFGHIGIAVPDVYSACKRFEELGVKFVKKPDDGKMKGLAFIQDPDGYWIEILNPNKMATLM
UniProt Q14188: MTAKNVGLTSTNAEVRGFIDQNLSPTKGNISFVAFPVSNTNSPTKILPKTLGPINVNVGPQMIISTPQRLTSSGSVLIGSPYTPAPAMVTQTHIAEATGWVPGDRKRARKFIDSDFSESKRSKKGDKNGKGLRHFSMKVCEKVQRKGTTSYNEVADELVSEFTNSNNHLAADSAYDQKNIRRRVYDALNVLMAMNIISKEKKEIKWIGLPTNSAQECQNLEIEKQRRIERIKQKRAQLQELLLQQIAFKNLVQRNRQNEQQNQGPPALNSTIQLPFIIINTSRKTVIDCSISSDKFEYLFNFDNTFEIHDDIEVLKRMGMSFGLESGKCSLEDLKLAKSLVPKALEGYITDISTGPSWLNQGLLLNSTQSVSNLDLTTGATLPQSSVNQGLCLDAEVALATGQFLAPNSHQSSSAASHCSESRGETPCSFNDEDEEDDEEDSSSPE
UniProt Q01850: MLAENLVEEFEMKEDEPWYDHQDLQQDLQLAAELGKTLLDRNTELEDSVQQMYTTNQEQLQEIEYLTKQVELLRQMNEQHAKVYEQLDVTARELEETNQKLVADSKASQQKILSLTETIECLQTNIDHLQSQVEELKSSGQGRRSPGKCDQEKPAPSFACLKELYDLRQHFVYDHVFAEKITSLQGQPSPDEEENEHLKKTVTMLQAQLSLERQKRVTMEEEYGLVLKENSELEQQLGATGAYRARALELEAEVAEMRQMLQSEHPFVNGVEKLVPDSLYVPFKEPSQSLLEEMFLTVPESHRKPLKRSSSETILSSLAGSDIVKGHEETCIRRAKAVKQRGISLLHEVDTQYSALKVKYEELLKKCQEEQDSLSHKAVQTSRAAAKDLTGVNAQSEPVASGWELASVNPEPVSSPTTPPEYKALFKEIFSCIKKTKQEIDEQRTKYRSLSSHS
UniProt Q13247: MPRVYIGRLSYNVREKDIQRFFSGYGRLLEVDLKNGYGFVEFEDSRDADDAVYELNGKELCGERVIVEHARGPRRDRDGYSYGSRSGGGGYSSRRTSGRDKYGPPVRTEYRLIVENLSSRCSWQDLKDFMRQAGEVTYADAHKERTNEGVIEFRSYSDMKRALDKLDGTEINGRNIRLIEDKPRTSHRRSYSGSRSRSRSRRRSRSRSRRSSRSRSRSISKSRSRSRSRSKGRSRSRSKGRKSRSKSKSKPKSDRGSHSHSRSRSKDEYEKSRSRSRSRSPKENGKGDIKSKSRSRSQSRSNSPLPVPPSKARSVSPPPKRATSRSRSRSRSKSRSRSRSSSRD
UniProt Q01826: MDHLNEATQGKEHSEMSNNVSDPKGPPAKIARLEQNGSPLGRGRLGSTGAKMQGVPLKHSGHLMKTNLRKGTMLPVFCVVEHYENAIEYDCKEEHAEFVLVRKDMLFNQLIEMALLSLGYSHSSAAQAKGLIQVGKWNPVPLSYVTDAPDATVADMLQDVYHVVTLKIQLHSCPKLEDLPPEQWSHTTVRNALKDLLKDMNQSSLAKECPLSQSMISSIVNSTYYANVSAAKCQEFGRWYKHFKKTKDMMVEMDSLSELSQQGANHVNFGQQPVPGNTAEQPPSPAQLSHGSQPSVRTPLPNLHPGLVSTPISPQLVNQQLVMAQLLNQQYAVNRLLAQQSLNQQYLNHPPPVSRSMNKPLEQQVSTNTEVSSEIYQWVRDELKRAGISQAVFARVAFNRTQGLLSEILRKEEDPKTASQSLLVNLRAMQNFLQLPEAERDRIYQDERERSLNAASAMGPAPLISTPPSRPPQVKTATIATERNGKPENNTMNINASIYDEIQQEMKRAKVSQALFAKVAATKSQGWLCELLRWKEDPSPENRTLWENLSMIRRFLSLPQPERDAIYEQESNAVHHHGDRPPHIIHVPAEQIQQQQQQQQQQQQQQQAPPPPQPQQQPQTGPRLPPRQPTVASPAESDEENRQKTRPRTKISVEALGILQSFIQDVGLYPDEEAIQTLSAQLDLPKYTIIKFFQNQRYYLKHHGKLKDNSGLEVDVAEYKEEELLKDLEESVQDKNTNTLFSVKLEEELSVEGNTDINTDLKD
UniProt Q0VD83: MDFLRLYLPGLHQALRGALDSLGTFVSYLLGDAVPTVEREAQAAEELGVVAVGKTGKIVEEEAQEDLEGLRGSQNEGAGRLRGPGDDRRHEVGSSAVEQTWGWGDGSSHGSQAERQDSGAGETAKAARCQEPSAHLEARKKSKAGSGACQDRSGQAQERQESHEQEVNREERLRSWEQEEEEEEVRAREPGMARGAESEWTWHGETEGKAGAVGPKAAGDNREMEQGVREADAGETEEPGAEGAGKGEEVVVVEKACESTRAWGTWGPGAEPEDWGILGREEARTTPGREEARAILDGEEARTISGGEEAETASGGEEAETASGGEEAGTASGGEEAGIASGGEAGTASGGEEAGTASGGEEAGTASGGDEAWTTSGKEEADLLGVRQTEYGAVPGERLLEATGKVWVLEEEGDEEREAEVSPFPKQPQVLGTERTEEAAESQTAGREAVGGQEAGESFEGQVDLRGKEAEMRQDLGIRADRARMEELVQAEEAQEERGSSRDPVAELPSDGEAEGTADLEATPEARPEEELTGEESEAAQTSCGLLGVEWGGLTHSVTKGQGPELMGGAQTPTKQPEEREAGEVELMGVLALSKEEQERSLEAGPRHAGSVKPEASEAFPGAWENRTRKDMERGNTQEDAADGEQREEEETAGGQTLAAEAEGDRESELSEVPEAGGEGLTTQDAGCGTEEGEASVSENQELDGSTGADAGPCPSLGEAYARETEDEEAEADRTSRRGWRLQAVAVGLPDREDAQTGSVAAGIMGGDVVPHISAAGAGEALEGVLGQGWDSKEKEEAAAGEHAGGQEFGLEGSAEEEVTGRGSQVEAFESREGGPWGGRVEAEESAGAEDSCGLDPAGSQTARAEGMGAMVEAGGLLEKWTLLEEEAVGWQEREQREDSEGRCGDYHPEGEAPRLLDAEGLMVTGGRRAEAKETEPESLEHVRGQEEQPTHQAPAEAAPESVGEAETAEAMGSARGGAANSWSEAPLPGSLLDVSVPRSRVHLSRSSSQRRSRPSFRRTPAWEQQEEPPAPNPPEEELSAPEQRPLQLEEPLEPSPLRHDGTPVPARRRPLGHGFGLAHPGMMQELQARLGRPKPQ
UniProt Q14153: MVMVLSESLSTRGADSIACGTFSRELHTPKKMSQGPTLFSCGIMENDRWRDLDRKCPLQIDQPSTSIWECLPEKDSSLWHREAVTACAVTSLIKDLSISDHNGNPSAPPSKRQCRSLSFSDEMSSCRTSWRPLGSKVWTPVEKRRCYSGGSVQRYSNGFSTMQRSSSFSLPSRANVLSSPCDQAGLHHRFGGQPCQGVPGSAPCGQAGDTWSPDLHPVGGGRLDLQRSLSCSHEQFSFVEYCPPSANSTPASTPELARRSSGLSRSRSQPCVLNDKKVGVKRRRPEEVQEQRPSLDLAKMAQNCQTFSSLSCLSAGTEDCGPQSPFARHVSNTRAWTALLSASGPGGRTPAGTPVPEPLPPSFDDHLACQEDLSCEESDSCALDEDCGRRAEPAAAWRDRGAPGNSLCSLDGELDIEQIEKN
UniProt Q08J23, whole entry: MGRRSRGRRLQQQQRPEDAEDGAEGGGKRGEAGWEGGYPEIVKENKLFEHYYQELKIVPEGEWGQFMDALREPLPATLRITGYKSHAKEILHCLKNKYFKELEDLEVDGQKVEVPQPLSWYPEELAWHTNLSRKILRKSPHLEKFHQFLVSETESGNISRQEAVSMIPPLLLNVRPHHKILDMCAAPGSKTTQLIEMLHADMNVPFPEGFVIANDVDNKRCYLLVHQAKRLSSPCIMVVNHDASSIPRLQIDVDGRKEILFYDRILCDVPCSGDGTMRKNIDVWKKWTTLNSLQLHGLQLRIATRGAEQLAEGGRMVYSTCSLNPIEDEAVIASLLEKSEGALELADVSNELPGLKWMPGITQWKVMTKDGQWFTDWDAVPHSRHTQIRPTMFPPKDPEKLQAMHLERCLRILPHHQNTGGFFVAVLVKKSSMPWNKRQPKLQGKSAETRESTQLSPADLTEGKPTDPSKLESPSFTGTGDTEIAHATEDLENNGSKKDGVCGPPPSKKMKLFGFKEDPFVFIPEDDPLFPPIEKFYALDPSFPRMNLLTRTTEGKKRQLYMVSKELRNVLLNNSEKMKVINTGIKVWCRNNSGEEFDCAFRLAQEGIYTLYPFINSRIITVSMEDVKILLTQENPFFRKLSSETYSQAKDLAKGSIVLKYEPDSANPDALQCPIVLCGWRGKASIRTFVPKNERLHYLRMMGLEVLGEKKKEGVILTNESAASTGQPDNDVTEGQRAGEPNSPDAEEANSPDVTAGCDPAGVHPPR
UniProt Q05655: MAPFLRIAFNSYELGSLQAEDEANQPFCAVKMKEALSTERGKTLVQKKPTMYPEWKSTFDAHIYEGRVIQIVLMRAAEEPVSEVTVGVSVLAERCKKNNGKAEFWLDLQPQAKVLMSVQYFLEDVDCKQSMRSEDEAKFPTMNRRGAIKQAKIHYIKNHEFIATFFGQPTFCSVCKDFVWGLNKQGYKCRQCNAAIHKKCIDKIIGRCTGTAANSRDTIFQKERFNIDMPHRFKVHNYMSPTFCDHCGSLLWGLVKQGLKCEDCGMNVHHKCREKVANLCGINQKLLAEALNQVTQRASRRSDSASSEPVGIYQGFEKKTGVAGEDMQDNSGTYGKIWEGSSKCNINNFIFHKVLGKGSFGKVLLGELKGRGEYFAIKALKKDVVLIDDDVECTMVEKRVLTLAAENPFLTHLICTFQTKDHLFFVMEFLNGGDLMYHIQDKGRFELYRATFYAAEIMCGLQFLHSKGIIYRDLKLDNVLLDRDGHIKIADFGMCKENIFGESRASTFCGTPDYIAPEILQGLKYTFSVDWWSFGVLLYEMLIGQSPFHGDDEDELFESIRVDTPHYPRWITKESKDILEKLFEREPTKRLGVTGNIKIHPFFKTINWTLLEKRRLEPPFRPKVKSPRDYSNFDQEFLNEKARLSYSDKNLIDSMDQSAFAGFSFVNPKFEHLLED

Compound: Nc1nc2c(ncn2[C@@H]2O[C@H](COP(=O)(O)OP(=O)(O)OP(=O)(O)O)[C@@H](O)[C@H]2O)c(=O)[nH]1 [guanosine triphosphate]
Experiment: NP40-soluble protein abundance relative to vehicle (solubility fold change) (ratio); higher = more soluble protein in presence of GTP
Summary of the method: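 Crude Jurkat lysate, prepared by Dounce homogenisation, was exposed to eight concentrations from 0.1 to 10 mM for 10 min at room temperature and then 3 min at 37 °C. Solubilisation used 0.8% NP40 with benzonase for 60 min at 4 °C, followed by ultracentrifugation and TMT labelling of the supernatant for LC-MS/MS. After vsn normalisation of intensities, each value is the fold change against the detergent-processed vehicle within each replicate, across three independent experiments.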

| Target | NP40-soluble protein abundance (concentration: 0.1mM) | NP40-soluble protein abundance (concentration: 0.5mM) | NP40-soluble protein abundance (concentration: 1mM) | NP40-soluble protein abundance (concentration: 2mM) | NP40-soluble protein abundance (concentration: 4mM) | NP40-soluble protein abundance (concentration: 6mM) | NP40-soluble protein abundance (concentration: 8mM) | NP40-soluble protein abundance (concentration: 10mM) |
| --- | --- | --- | --- | --- | --- | --- | --- | --- |
| SLC39A6 (UniProt Q13433) | 0.893 ± 0.069 | 0.953 ± 0.093 | 0.934 ± 0.06 | 0.914 ± 0.053 | 0.8761 ± 0.008 | 0.982 ± 0.061 | 0.933 ± 0.021 | 0.989 ± 0.021 |
| PWP1 (UniProt Q13610) | 1.04 ± 0.038 | 1.04 ± 0.054 | 0.959 ± 0.069 | 0.966 ± 0.06 | 0.979 ± 0.097 | 0.99 ± 0.1 | 0.986 ± 0.12 | 0.986 ± 0.1 |
| CENPE (UniProt Q02224) | 1.12 ± 0.013 | 0.98 ± 0.034 | 1.2 ± 0.022 | 1.05 ± 0.074 | 1.241 ± 0.0034 | 1.04 ± 0.026 | 1.3 ± 0.11 | 1.08 ± 0.094 |
| MTMR2 (UniProt Q13614) | 1.05 ± 0.16 | 1.07 ± 0.14 | 1.01 ± 0.1 | 1 ± 0.074 | 0.993 ± 0.085 | 1.02 ± 0.12 | 0.953 ± 0.099 | 0.915 ± 0.1 |
| UniProt Q13595 and related entries | 1.03 ± 0.051 | 1.22 ± 0.049 | 1.25 ± 0.17 | 1.32 ± 0.13 | 1.26 ± 0.24 | 1.22 ± 0.26 | 1.26 ± 0.26 | 1.26 ± 0.3 |
| UniProt Q12904 | 0.984 ± 0.028 | 1.05 ± 0.051 | 1.11 ± 0.1 | 1.15 ± 0.17 | 1.18 ± 0.25 | 1.23 ± 0.24 | 1.24 ± 0.28 | 1.2 ± 0.26 |
| UniProt Q13469 and related entries | 0.995 ± 0.018 | 0.969 ± 0.028 | 0.971 ± 0.048 | 0.935 ± 0.032 | 0.933 ± 0.054 | 0.913 ± 0.034 | 0.963 ± 0.016 | 0.931 ± 0.038 |
| UniProt Q12792 and related entries | 1.09 ± 0.098 | 1.11 ± 0.14 | 1.02 ± 0.024 | 1.04 ± 0.0074 | 1.03 ± 0.05 | 0.974 ± 0.082 | 1.06 ± 0.036 | 0.993 ± 0.063 |
| SLC20A2 (UniProt Q08357) | 0.951 ± 0.045 | 0.942 ± 0.051 | 0.982 ± 0.04 | 0.898 ± 0.047 | 0.965 ± 0.077 | 0.956 ± 0.077 | 0.965 ± 0.037 | 0.912 ± 0.15 |
| UniProt Q04760 and related entries | 0.844 ± 0.078 | 0.808 ± 0.022 | 0.92 ± 0.066 | 0.891 ± 0.038 | 0.877 ± 0.031 | 0.882 ± 0.024 | 0.799 ± 0.1 | 0.884 ± 0.036 |
| TMED1 (UniProt Q13445) | 1.01 ± 0.068 | 0.98 ± 0.073 | 1 ± 0.13 | 0.967 ± 0.1 | 1 ± 0.13 | 0.948 ± 0.14 | 1.01 ± 0.12 | 0.904 ± 0.13 |
| KHDRBS1 (UniProt Q07666) | 0.919 ± 0.033 | 0.93 ± 0.032 | 0.989 ± 0.042 | 0.968 ± 0.052 | 1.01 ± 0.074 | 1.03 ± 0.057 | 1.1 ± 0.087 | 1.11 ± 0.085 |
| UniProt Q12789 and related entries | 1.08 ± 0.051 | 1.08 ± 0.093 | 1.1 ± 0.1 | 1.13 ± 0.09 | 1.13 ± 0.1 | 1.1 ± 0.077 | 1.1 ± 0.11 | 1.1 ± 0.11 |
| TFDP2 (UniProt Q14188) | 1.03 ± 0.16 | 1.07 ± 0.079 | 1.12 ± 0.044 | 1.09 ± 0.13 | 1.04 ± 0.16 | 1.07 ± 0.1 | 1.09 ± 0.034 | 1.05 ± 0.1 |
| CDR2 (UniProt Q01850) | 1.03 ± 0.042 | 0.998 ± 0.1 | 1.02 ± 0.14 | 1.06 ± 0.057 | 0.989 ± 0.11 | 1.04 ± 0.11 | 1.01 ± 0.13 | 1.02 ± 0.075 |
| UniProt Q13247 and related entries | 0.996 ± 0.035 | 1.25 ± 0.051 | 1.34 ± 0.031 | 1.27 ± 0.047 | 1.13 ± 0.058 | 1.28 ± 0.068 | 1.39 ± 0.065 | 1.27 ± 0.1 |
| PRPF4B (UniProt Q13523) | 1.04 ± 0.027 | 1.13 ± 0.05 | 1.19 ± 0.048 | 1.24 ± 0.056 | 1.37 ± 0.072 | 1.44 ± 0.11 | 1.52 ± 0.16 | 1.57 ± 0.19 |
| UniProt Q01826 and related entries | 0.968 ± 0.019 | 0.937 ± 0.05 | 1.01 ± 0.036 | 0.996 ± 0.06 | 0.984 ± 0.038 | 0.969 ± 0.029 | 0.975 ± 0.029 | 0.982 ± 0.05 |
| UniProt Q0VD83 and related entries | 0.831 ± 0.12 | 0.803 ± 0.038 | 0.853 ± 0.1 | 0.7891 ± 0.0034 | 0.789 ± 0.13 | 0.741 ± 0.062 | 0.813 ± 0.096 | 0.792 ± 0.097 |
| UniProt Q01085-2 | 0.933 ± 0.1 | 0.931 ± 0.12 | 0.875 ± 0.14 | 0.863 ± 0.096 | 0.839 ± 0.11 | 0.853 ± 0.11 | 0.844 ± 0.15 | 0.863 ± 0.14 |
| UniProt Q14153 and related entries | 0.98 ± 0.13 | 1 ± 0.19 | 1.03 ± 0.016 | 0.968 ± 0.074 | 0.923 ± 0.036 | 0.927 ± 0.077 | 0.905 ± 0.044 | 0.9312 ± 0.0031 |
| UniProt Q08J23 and related entries | 1.03 ± 0.013 | 1.02 ± 0.026 | 0.996 ± 0.017 | 0.973 ± 0.025 | 1.01 ± 0.03 | 1.01 ± 0.021 | 1.05 ± 0.015 | 1.04 ± 0.012 |
| UniProt Q01082 and related entries | 0.93 ± 0.067 | 0.978 ± 0.069 | 0.963 ± 0.067 | 0.956 ± 0.069 | 1.04 ± 0.07 | 1.17 ± 0.074 | 1.27 ± 0.08 | 1.31 ± 0.097 |
| UniProt Q05655 | 0.978 ± 0.076 | 1 ± 0.037 | 0.98 ± 0.035 | 1.01 ± 0.038 | 0.956 ± 0.026 | 0.938 ± 0.056 | 0.933 ± 0.062 | 0.914 ± 0.058 |
| CHAF1A (UniProt Q13111) | 0.999 ± 0.071 | 0.994 ± 0.073 | 1 ± 0.074 | 0.974 ± 0.068 | 1.01 ± 0.075 | 0.992 ± 0.063 | 1.07 ± 0.092 | 1.05 ± 0.086 |
| UniProt Q14156 and related entries | 1.13 ± 0.049 | 1.105 ± 0.011 | 1.09 ± 0.11 | 1.1 ± 0.021 | 1.21 ± 0.11 | 1.1 ± 0.16 | 1.0338 ± 0.00078 | 1.01 ± 0.013 |
| UniProt Q14004 and related entries | 1.02 ± 0.037 | 1.107 ± 0.0034 | 1.16 ± 0.032 | 1.18 ± 0.042 | 1.2 ± 0.043 | 1.21 ± 0.057 | 1.24 ± 0.099 | 1.22 ± 0.12 |

Six neighbouring entries already listed:

| Target | NP40-soluble protein abundance (concentration: 0.1mM) | NP40-soluble protein abundance (concentration: 0.5mM) | NP40-soluble protein abundance (concentration: 1mM) | NP40-soluble protein abundance (concentration: 2mM) | NP40-soluble protein abundance (concentration: 4mM) | NP40-soluble protein abundance (concentration: 6mM) | NP40-soluble protein abundance (concentration: 8mM) | NP40-soluble protein abundance (concentration: 10mM) |
| --- | --- | --- | --- | --- | --- | --- | --- | --- |
| UniProt Q08J23 and related entries | 1.03 ± 0.013 | 1.02 ± 0.026 | 0.996 ± 0.017 | 0.973 ± 0.025 | 1.01 ± 0.03 | 1.01 ± 0.021 | 1.05 ± 0.015 | 1.04 ± 0.012 |
| UniProt Q01082 and related entries | 0.93 ± 0.067 | 0.978 ± 0.069 | 0.963 ± 0.067 | 0.956 ± 0.069 | 1.04 ± 0.07 | 1.17 ± 0.074 | 1.27 ± 0.08 | 1.31 ± 0.097 |
| UniProt Q05655 | 0.978 ± 0.076 | 1 ± 0.037 | 0.98 ± 0.035 | 1.01 ± 0.038 | 0.956 ± 0.026 | 0.938 ± 0.056 | 0.933 ± 0.062 | 0.914 ± 0.058 |
| CHAF1A (UniProt Q13111) | 0.999 ± 0.071 | 0.994 ± 0.073 | 1 ± 0.074 | 0.974 ± 0.068 | 1.01 ± 0.075 | 0.992 ± 0.063 | 1.07 ± 0.092 | 1.05 ± 0.086 |
| UniProt Q14156 and related entries | 1.13 ± 0.049 | 1.105 ± 0.011 | 1.09 ± 0.11 | 1.1 ± 0.021 | 1.21 ± 0.11 | 1.1 ± 0.16 | 1.0338 ± 0.00078 | 1.01 ± 0.013 |
| UniProt Q14004 and related entries | 1.02 ± 0.037 | 1.107 ± 0.0034 | 1.16 ± 0.032 | 1.18 ± 0.042 | 1.2 ± 0.043 | 1.21 ± 0.057 | 1.24 ± 0.099 | 1.22 ± 0.12 |
